PubChem BioAssay AID926 (National Center for Advancing Translational Sciences (NCATS), 2007)
The campaign covered roughly 73,000 compounds. About 350 (0.48%) were called active. Listed are the inconclusive results; actives and inactives stand elsewhere. The call rests on the fitted dose curve; in most records, active means well fitted activation curve with a large enough effect in the main read-out, with a control signal flat (not every such curve was filed as active); inconclusive means small, poorly fitted or top-dose-only effect, or a change in a side signal; inactive means no such curve, though single readings can be large or run the other way; reference of the percent scale not stated here. Some of these compounds have results that are not shown, active ones among them.

Protein sequences, listed by entry. Tags and fused reporters are not part of them.
UniProt P16473, whole entry: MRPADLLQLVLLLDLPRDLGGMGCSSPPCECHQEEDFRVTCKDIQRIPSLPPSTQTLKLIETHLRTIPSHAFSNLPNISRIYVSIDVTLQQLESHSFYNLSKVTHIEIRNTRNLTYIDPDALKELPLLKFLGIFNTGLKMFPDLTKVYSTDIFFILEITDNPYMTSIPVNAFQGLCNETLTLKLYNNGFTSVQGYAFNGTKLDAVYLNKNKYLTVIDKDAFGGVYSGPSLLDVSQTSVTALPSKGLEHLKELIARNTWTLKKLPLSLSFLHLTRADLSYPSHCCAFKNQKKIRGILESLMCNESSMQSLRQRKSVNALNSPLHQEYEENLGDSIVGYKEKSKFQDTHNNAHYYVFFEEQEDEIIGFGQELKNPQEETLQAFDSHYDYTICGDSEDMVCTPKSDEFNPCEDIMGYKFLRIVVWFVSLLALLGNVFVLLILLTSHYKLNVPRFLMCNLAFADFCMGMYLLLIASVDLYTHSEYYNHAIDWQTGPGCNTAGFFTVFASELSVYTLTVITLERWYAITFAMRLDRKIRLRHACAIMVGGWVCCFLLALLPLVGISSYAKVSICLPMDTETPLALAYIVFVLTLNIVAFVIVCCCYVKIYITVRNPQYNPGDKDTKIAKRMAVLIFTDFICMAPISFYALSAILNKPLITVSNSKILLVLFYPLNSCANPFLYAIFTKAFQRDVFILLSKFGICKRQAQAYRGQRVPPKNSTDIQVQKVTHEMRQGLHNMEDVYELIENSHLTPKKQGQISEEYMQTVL

Each molecule was assayed against Thyrotropin receptor (Homo sapiens) (UniProt P16473) (assay: qHTS Assay for Agonists of the Thyroid Stimulating Hormone Receptor). Details: HEK293-CNG-TSHR cells (CNG channel as cAMP sensor), membrane potential dye, cAMP.
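Further: the control signal comes from parental cells without the receptor.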
Potency means the concentration at half of the fitted maximal effect.

SMILES	Potency
O=C(OC1CN2CCC1CC2)C(CO)(c1ccccc1)c1ccccc1 (stereo unspecified)	inconclusive: 39.8 µM
